Results are given in words; binding and its absence hold for the method and conditions named. Binding seen in cells or lysates may run through a third protein. Some binding calls cover weakened binding; strength is not graded here. For part of these data: Tags and fused reporters may be left off the sequences shown.

The chains behind the UniProt entries cited, without tags or fusion partners. Where a name states a change or a piece, a line headed by the entry shows the natural chain unless it says otherwise. A line that says so, or that is headed by a name, gives the form on record, which may keep a tag or linker.
UniProt Q14643: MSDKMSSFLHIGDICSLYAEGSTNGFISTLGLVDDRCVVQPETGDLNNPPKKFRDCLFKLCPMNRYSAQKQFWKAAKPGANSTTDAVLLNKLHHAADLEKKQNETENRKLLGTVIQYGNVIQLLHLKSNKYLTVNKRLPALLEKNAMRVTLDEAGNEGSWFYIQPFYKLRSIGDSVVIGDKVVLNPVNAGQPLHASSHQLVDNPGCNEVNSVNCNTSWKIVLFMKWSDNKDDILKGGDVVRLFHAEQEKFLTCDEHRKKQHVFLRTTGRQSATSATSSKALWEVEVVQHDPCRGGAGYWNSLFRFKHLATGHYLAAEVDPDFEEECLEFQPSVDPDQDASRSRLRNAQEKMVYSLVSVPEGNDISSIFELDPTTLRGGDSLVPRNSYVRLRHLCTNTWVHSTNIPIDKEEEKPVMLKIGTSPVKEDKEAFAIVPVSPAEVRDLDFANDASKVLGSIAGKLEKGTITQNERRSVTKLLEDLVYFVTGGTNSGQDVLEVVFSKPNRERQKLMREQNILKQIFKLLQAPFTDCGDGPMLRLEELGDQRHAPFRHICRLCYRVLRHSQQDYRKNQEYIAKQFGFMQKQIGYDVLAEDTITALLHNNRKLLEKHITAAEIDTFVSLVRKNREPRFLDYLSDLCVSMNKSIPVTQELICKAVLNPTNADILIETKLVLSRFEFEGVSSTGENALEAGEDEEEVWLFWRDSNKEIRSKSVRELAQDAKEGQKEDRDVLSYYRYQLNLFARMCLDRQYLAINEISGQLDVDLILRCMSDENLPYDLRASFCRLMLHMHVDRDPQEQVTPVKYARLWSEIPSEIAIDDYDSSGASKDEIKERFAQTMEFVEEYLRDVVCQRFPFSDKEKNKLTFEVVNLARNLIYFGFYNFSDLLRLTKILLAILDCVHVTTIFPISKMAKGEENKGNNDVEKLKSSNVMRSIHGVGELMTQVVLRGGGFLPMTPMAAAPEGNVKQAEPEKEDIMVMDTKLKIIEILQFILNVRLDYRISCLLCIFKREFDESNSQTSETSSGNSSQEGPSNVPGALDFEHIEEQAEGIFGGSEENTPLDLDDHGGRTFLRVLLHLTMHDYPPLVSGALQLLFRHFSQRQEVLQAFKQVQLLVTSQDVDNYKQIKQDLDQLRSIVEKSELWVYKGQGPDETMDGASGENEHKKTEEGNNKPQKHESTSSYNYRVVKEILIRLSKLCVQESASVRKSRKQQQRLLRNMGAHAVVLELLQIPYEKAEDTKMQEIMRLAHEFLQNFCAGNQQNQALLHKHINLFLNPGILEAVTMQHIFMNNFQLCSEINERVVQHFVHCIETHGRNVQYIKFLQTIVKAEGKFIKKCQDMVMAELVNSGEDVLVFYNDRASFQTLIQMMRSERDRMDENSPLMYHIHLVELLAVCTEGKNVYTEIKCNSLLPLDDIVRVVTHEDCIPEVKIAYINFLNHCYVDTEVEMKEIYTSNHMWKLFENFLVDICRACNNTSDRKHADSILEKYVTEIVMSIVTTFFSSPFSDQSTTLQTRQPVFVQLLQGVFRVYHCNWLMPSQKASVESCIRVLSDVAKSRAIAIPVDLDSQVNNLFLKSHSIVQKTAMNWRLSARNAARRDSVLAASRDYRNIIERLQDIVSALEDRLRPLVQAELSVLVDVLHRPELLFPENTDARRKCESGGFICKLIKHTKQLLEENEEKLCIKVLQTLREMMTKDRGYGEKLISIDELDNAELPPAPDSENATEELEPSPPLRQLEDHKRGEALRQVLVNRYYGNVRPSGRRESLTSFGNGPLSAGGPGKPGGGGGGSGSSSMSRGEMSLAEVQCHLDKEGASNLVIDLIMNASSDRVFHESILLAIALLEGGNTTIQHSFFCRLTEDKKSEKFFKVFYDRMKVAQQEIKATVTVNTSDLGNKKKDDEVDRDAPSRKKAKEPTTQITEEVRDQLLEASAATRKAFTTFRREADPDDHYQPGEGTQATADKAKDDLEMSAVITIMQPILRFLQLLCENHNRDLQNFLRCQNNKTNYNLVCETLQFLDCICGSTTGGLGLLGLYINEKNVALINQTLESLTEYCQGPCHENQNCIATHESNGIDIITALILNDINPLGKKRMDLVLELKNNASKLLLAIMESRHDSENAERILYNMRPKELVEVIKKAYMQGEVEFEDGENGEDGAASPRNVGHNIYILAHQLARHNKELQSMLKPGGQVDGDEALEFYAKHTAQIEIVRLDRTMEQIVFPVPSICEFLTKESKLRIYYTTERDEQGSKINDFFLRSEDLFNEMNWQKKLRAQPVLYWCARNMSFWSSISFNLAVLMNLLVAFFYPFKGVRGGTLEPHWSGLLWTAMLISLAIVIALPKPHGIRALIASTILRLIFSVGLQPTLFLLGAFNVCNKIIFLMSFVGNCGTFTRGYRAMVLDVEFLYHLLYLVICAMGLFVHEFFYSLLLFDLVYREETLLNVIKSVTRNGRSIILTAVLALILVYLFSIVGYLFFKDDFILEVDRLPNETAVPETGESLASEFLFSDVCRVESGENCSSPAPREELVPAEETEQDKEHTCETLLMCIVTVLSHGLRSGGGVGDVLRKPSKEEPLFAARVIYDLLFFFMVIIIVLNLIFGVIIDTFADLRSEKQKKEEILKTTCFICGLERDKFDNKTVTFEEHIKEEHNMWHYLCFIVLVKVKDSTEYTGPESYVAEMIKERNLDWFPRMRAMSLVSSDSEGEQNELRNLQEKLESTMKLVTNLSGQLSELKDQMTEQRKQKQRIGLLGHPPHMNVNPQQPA
HA-hBD (IP3 ligand binding domain of human IP3R1 tagged with an HA epitope) (Q14643, form named): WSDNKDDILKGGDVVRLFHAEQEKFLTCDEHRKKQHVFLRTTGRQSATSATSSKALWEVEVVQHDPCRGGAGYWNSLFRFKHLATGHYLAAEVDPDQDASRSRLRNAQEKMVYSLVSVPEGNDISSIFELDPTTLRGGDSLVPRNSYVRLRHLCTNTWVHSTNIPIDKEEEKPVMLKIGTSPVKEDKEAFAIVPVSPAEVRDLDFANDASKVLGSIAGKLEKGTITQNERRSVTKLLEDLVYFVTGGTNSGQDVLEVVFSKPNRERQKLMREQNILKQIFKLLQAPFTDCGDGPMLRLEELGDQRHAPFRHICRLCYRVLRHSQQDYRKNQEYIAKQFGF

Test [1] concerns the target endogenous IP3R1 (inositol 1,4,5-triphosphate receptor type 1) in MDA-MB-231 cells (human) (UniProt Q14643). The test is described as follows: proximity ligation assay (PLA) on fixed MDA-MB-231 cells.
Test [2] addresses HA-hBD (IP3 ligand binding domain of human IP3R1 tagged with an HA epitope) (human) (UniProt Q14643). As to the kind of experiment: co-immunoprecipitation with anti-HA antibody, transfected HeLa cells, Western blot.
In test [3] the target is T1, HA-Nrh (human Bcl-2 L10/Nrh protein tagged with HA) (human) (UniProt Q9HD36).
T1 sequence (looked up): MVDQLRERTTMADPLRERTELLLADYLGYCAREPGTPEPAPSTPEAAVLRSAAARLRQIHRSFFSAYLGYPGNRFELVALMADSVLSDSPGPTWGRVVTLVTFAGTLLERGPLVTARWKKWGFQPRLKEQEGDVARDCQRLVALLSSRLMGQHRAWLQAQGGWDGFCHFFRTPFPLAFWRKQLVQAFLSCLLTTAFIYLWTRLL
As to the kind of experiment: co-immunoprecipitation with anti-HA antibody.

B1: endogenous protein Bcl-2 L10/Nrh (in cells) (protein, human, UniProt Q9HD36 1-204, looked up)
chain: T1 sequence (looked up)
Regarding B1, the binding result in test [1] was “binds”.

B2: Flag-Nrh (human Bcl-2 L10/Nrh protein tagged with a Flag epitope) (protein, UniProt Q9HD36 1-204, looked up, not shown: small tags and cut ends)
chain: T1 sequence (looked up)
For B2, the binding result in test [2] and in test [3] was “binds” each time.
